US5840673

Biological target: p53 (wild type, pC53-SN3) (UniProt P04637)
Test: activity in cells
Settings: luciferase reporter, Saos-2 cells, p53-inducible, protein in cells, only the site is given

Sequence | activity on this sequence (one copy of Box A) | activity on this sequence (one or two copies of Box B)
TCGAGAAAACAAGCCACCAACATGCTTGC (double strand) [IGF-BP3 Box A] | active | 
TCGAGAGGAGGGCAAGACCTGCCAAGCCTGGGTA (double strand) [IGF-BP3 Box B] |  | active
